PubChem BioAssay AID1259254, NCATS – 2017
Purpose: 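Genome-wide screen for genes that prevent DNA re-replication in cancer cells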 (primary screen). System: human HCT116 colorectal cancer cells. Knock-down reagent: single siRNA against human genes. Timing: 3 days. Measurement: 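Imaged Hoechst DNA stain sorts each cell into a cycle phase by DNA amount; per plate, G2 fraction set to 0% for non-targeting and 100% for GMNN siRNA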. Scale: G2 robust z-score and G2 cells, % of GMNN control: higher = more G2 cells, more excess DNA replication; raw share of cells in G2: higher = larger share of cells with G2 DNA content. Call rule: 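An siRNA counts as active if its G2 robust z-score lies at least 5 MADs above the screen median; here such calls match roughly 38% of GMNN control or more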.
Shown is a random part of about 59,000 reagents. Of all reagents, about 1,550 (2.6%) got an active call. 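G2 share is only a proxy for re-replication; each gene was hit by three separate siRNAs, and active genes were retested.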 Raw values are not corrected between plates. Reagent sequences are not shown. Not stated in the record: the amount of reagent.

| Gene | PubChem SID | G2 robust z-score | G2 cells, % of GMNN control | raw share of cells in G2 (%) | outcome |
| --- | --- | --- | --- | --- | --- |
| ECE2 | SID160722895 | -0.522 | -0.709 | 5.31 | inactive |
| ECE2 | SID160722896 | 0.0403 | 3.25 | 6.06 | inactive |
| ECE2 | SID160722897 | -0.885 | -3.26 | 2.69 | inactive |
| ECE2 | SID160752075 | 0.309 | 5.14 | 5.82 | inactive |
| ECE2 | SID160752076 | 3.63 | 28.5 | 11.9 | inactive |
| ECE2 | SID160752077 | 0.839 | 8.87 | 5.09 | inactive |
| SNN | SID160719823 | -1.23 | -5.67 | 2.62 | inactive |
| SNN | SID160719824 | 5.79 | 43.7 | 21.2 | active |
| SNN | SID160719825 | -0.438 | -0.115 | 3.31 | inactive |
| CIMIP5 | SID160757002 | 0.541 | 6.77 | 6.73 | inactive |
| CIMIP5 | SID160757003 | -0.89 | -3.3 | 2.06 | inactive |
| CIMIP5 | SID160757004 | -0.152 | 1.9 | 3.27 | inactive |
| FKBP4 | SID160761638 | -0.172 | 1.75 | 4.28 | inactive |
| FKBP4 | SID160762669 | -0.897 | -3.35 | 3.99 | inactive |
| FKBP4 | SID160763684 | 0.589 | 7.11 | 7.82 | inactive |
| ERLIN2 | SID160730079 | 0.286 | 4.98 | 6.94 | inactive |
| ERLIN2 | SID160730080 | 2.67 | 21.8 | 13.1 | inactive |
| ERLIN2 | SID160732321 | 1.65 | 14.6 | 8.64 | inactive |
| SAE1 | SID160724646 | 1.3 | 12.1 | 9.67 | inactive |
| SAE1 | SID160724657 | 1.13 | 10.9 | 6.92 | inactive |
| SAE1 | SID160724663 | 0.918 | 9.43 | 8.77 | inactive |
| MACO1 | SID160743263 | -1.05 | -4.4 | 2.83 | inactive |
| MACO1 | SID160743264 | 0.426 | 5.97 | 6.61 | inactive |
| MACO1 | SID160743265 | -0.867 | -3.13 | 2.14 | inactive |
| DNAJB8 | SID160730686 | -0.0847 | 2.37 | 3.91 | inactive |
| DNAJB8 | SID160760181 | 0.509 | 6.55 | 5.44 | inactive |
| DNAJB8 | SID160760182 | 2.93 | 23.6 | 11.8 | inactive |
| LOC646471 | SID160725941 | -0.235 | 1.31 | 4.27 | inactive |
| LOC646471 | SID160725942 | 0.0241 | 3.14 | 4.39 | inactive |
| LOC646471 | SID160728022 | 0.943 | 9.6 | 6.09 | inactive |
| DACT3 | SID160758586 | 2.92 | 23.5 | 11.7 | inactive |
| DACT3 | SID160758587 | -0.0848 | 2.37 | 3.64 | inactive |
| DACT3 | SID160758588 | 1.47 | 13.3 | 7.72 | inactive |
| LAX1 | SID160742451 | 0.55 | 6.84 | 6.05 | inactive |
| LAX1 | SID160742452 | 2.17 | 18.2 | 11.9 | inactive |
| LAX1 | SID160742453 | 1.58 | 14.1 | 7.85 | inactive |
| WDR33 | SID160743580 | 3.6 | 28.3 | 18.8 | inactive |
| WDR33 | SID160743581 | -0.563 | -0.992 | 4.08 | inactive |
| WDR33 | SID160743582 | 0.668 | 7.67 | 7.53 | inactive |
| RASSF7 | SID160724120 | -0.632 | -1.48 | 4.48 | inactive |
| RASSF7 | SID160724121 | -0.658 | -1.66 | 3.24 | inactive |
| RASSF7 | SID160724122 | -0.576 | -1.08 | 2.96 | inactive |
| GATAD2A | SID160731471 | 4.64 | 35.6 | 17.4 | inactive |
| GATAD2A | SID160742227 | 0.238 | 4.64 | 5.58 | inactive |
| GATAD2A | SID160742228 | -0.969 | -3.85 | 4.21 | inactive |
| EVI2A | SID160732677 | -0.528 | -0.745 | 3.23 | inactive |
| EVI2A | SID160762416 | 2.25 | 18.8 | 14.1 | inactive |
| EVI2A | SID160762425 | 1.03 | 10.2 | 7.84 | inactive |
| LOC728877 | SID160726854 | 4.15 | 32.2 | 13.7 | inactive |
| LOC728877 | SID160726855 | 0.471 | 6.28 | 5.55 | inactive |
| LOC728877 | SID160772245 | 2.95 | 23.7 | 13 | inactive |
| KRT23 | SID160737393 | 0.973 | 9.81 | 7.45 | inactive |
| KRT23 | SID160737394 | -0.917 | -3.48 | 2.85 | inactive |
| KRT23 | SID160737395 | -0.663 | -1.7 | 5.39 | inactive |
| KCNH3 | SID160736243 | 0.907 | 9.35 | 8.69 | inactive |
| KCNH3 | SID160736244 | 5.76 | 43.5 | 19.5 | active |
| KCNH3 | SID160736245 | -1.3 | -6.17 | 1.97 | inactive |
| MRPL40 | SID160748183 | -0.131 | 2.04 | 5.47 | inactive |
| MRPL40 | SID160748184 | 0.64 | 7.47 | 7.96 | inactive |
| MRPL40 | SID160748185 | -0.666 | -1.72 | 2.24 | inactive |
| RALB | SID160715627 | 1.33 | 12.3 | 9.21 | inactive |
| RALB | SID160715628 | -1.19 | -5.39 | 2.62 | inactive |
| RALB | SID160715629 | -0.798 | -2.65 | 3.26 | inactive |
| CEP89 | SID160752898 | 0.521 | 6.63 | 6.9 | inactive |
| CEP89 | SID160752900 | 1.25 | 11.7 | 6.68 | inactive |
| CEP89 | SID160752901 | 0.667 | 7.66 | 5.35 | inactive |
| GTSE1 | SID160740911 | -0.669 | -1.74 | 2.98 | inactive |
| GTSE1 | SID160740912 | 0.529 | 6.69 | 7.09 | inactive |
| GTSE1 | SID160740913 | -0.693 | -1.91 | 2.56 | inactive |
| TDP2 | SID160741020 | 0.464 | 6.23 | 8.78 | inactive |
| TDP2 | SID160741021 | -0.741 | -2.24 | 3.41 | inactive |
| TDP2 | SID160741022 | -0.771 | -2.46 | 2.86 | inactive |
| KIAA1217 | SID160744953 | -0.406 | 0.113 | 4.39 | inactive |
| KIAA1217 | SID160744955 | -0.709 | -2.02 | 3.49 | inactive |
| KIAA1217 | SID160744956 | 1.35 | 12.5 | 6.97 | inactive |
| HIVEP3 | SID160746956 | 0.258 | 4.78 | 6.04 | inactive |
| HIVEP3 | SID160746957 | 1.43 | 13.1 | 11.1 | inactive |
| HIVEP3 | SID160746959 | -0.224 | 1.39 | 4.73 | inactive |
| ADCY10 | SID160744422 | -0.622 | -1.41 | 5.81 | inactive |
| ADCY10 | SID160744423 | -0.0385 | 2.7 | 5.41 | inactive |
| ADCY10 | SID160744425 | -0.213 | 1.47 | 4.95 | inactive |
| PARVB | SID160739165 | 2.35 | 19.5 | 15 | inactive |
| PARVB | SID160739166 | 0.508 | 6.54 | 6.36 | inactive |
| PARVB | SID160739167 | -0.222 | 1.41 | 4.45 | inactive |
| CBR4 | SID160752813 | 0.523 | 6.64 | 7.25 | inactive |
| CBR4 | SID160752814 | -0.0713 | 2.47 | 5.09 | inactive |
| CBR4 | SID160752816 | 2.11 | 17.8 | 12.8 | inactive |

12 entries from above in another layout.
{"Gene":"CIMIP5","PubChem SID":"SID160757002","G2 robust z-score":0.541,"G2 cells, % of GMNN control":6.77,"raw share of cells in G2 (%)":6.73,"outcome":"inactive"}
{"Gene":"CIMIP5","PubChem SID":"SID160757003","G2 robust z-score":-0.89,"G2 cells, % of GMNN control":-3.3,"raw share of cells in G2 (%)":2.06,"outcome":"inactive"}
{"Gene":"CIMIP5","PubChem SID":"SID160757004","G2 robust z-score":-0.152,"G2 cells, % of GMNN control":1.9,"raw share of cells in G2 (%)":3.27,"outcome":"inactive"}
{"Gene":"FKBP4","PubChem SID":"SID160761638","G2 robust z-score":-0.172,"G2 cells, % of GMNN control":1.75,"raw share of cells in G2 (%)":4.28,"outcome":"inactive"}
{"Gene":"FKBP4","PubChem SID":"SID160762669","G2 robust z-score":-0.897,"G2 cells, % of GMNN control":-3.35,"raw share of cells in G2 (%)":3.99,"outcome":"inactive"}
{"Gene":"FKBP4","PubChem SID":"SID160763684","G2 robust z-score":0.589,"G2 cells, % of GMNN control":7.11,"raw share of cells in G2 (%)":7.82,"outcome":"inactive"}
{"Gene":"ERLIN2","PubChem SID":"SID160730079","G2 robust z-score":0.286,"G2 cells, % of GMNN control":4.98,"raw share of cells in G2 (%)":6.94,"outcome":"inactive"}
{"Gene":"ERLIN2","PubChem SID":"SID160730080","G2 robust z-score":2.67,"G2 cells, % of GMNN control":21.8,"raw share of cells in G2 (%)":13.1,"outcome":"inactive"}
{"Gene":"ERLIN2","PubChem SID":"SID160732321","G2 robust z-score":1.65,"G2 cells, % of GMNN control":14.6,"raw share of cells in G2 (%)":8.64,"outcome":"inactive"}
{"Gene":"SAE1","PubChem SID":"SID160724646","G2 robust z-score":1.3,"G2 cells, % of GMNN control":12.1,"raw share of cells in G2 (%)":9.67,"outcome":"inactive"}
{"Gene":"SAE1","PubChem SID":"SID160724657","G2 robust z-score":1.13,"G2 cells, % of GMNN control":10.9,"raw share of cells in G2 (%)":6.92,"outcome":"inactive"}
{"Gene":"SAE1","PubChem SID":"SID160724663","G2 robust z-score":0.918,"G2 cells, % of GMNN control":9.43,"raw share of cells in G2 (%)":8.77,"outcome":"inactive"}
